Source: PubChem BioAssay AID743454 (Peter MacCallum Cancer Centre, 2014)
In all, the deposit lists about 18,000 reagents; shown is an unselected part. 450 of all reagents (2.5%) were called active. 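Single biological run; no consistent viability z cut-off exists, so the class columns, not z-scores, define the calls.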

Test: 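Knock-downs lowering viability or raising caspase 3/7 activity in vorinostat-treated resistant cells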 (primary screen)
System: human HCT116-VR colon cancer cells, selected for vorinostat resistance
Reagents: siRNA pool against human genes, 40 nM siRNA pool
Timing: vorinostat for 24 h, read-out about 72 h after transfection
Treatment: vorinostat at 2.5 µM final
Measured: 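Cell viability by CellTiter-Fluor and caspase 3/7 activity by luminescence, each scaled to mock wells per plate, duplicates averaged, then robust z-scored over all plates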
Reading the numbers: viability robust z-score: higher = more viable cells than screen typical; caspase robust z-score: higher = more caspase 3/7 activity than screen typical
Active means: 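Hits are knock-downs in viability class RV1/RV2 or caspase class CA1/CA2, excluding ones that killed cells in the no-drug cell-count arm; hits then retested with single siRNAs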

| Gene | viability hit class | caspase hit class | viability robust z-score | caspase robust z-score | Outcome |
| --- | --- | --- | --- | --- | --- |
| GNAT1 (G protein subunit alpha transducin 1) | no change | no change | -0.78 | -0.43 | inactive |
| GLTP (glycolipid transfer protein) | no change | no change | -0.39 | 3.41 | inactive |
| INPP5F (inositol polyphosphate-5-phosphatase F) | no change | no change | -0.14 | -0.33 | inactive |
| ACACB (acetyl-CoA carboxylase beta) | no change | no change | 1.18 | -0.7 | inactive |
| VWCE (von Willebrand factor C and EGF domains) | no change | no change | 0.11 | 2.63 | inactive |
| MGAT4C (MGAT4 family member C) | no change | no change | -1.6 | 2.43 | inactive |
| NAP1L5 (nucleosome assembly protein 1 like 5) | no change | no change | -1.21 | -0.83 | inactive |
| SUCLG1 (succinate-CoA ligase GDP/ADP-forming subunit alpha) | no change | no change | 0.19 | -0.57 | inactive |
| ZFP30 (ZFP30 zinc finger protein) | no change | no change | -0.03 | -0.56 | inactive |
| UTP23 (UTP23 small subunit processome component) | no change | no change | 0.17 | -0.36 | inactive |
| NRG4 (neuregulin 4) | no change | no change | 0.19 | 0.04 | inactive |
| SH2B3 (SH2B adaptor protein 3) | no change | no change | 2.26 | 1.75 | inactive |
| STAG3L3 (STAG3 cohesin complex component like 3 (pseudogene)) | no change | no change | -0.5 | -0.76 | inactive |
| TDP1 (tyrosyl-DNA phosphodiesterase 1) | no change | no change | -0.86 | 0.26 | inactive |
| MC1R (melanocortin 1 receptor) | no change | no change | 1.01 | -0.42 | inactive |
| SLC23A1 | no change | no change | -0.44 | 1.12 | inactive |
| NOTCH2NLA (notch 2 N-terminal like A) | no change | no change | -0.06 | -0.4 | inactive |
| WDR45 (WD repeat domain 45) | no change | no change | -0.13 | -0.94 | inactive |
| FAM216B (family with sequence similarity 216 member B) | no change | no change | 2.14 | -0.32 | inactive |
| VANGL1 (VANGL planar cell polarity protein 1) | no change | no change | 1.27 | -1.02 | inactive |
| TTPA (alpha tocopherol transfer protein) | no change | no change | -1.27 | 2.04 | inactive |
| PRC1 (protein regulator of cytokinesis 1) | no change | no change | -1.93 | 4.92 | inactive |
| CCL5 (C-C motif chemokine ligand 5) | no change | no change | 0.39 | -0.25 | inactive |
| TMEM184A (transmembrane protein 184A) | no change | no change | -0.38 | 0.72 | inactive |
| TMEM200B (transmembrane protein 200B) | no change | no change | -0.4 | -0.94 | inactive |
| MSANTD3 (Myb/SANT DNA binding domain containing 3) | no change | no change | -0.04 | -0.05 | inactive |
| POLR2B (RNA polymerase II subunit B) | no change | no change | -3.01 | 3.17 | inactive |
| DIPK1C (divergent protein kinase domain 1C) | no change | no change | -0.6 | -0.57 | inactive |
| LSP1 (lymphocyte specific protein 1) | no change | no change | 1.09 | -0.09 | inactive |
| MRGPRX2 (MAS related GPR family member X2) | no change | no change | 0 | -0.48 | inactive |
| TYSND1 (trypsin like peroxisomal matrix peptidase 1) | no change | no change | 0.43 | 0.26 | inactive |
| APOM (apolipoprotein M) | no change | no change | 0.73 | 2.73 | inactive |
| SMAP1 (small ArfGAP 1) | no change | no change | 0.24 | -0.28 | inactive |
| PCDH17 (protocadherin 17) | no change | no change | 0.04 | 0.62 | inactive |
| BPGM (bisphosphoglycerate mutase) | no change | no change | 0.96 | 0.62 | inactive |
| ZNF281 (zinc finger protein 281) | no change | no change | 0.08 | 2.71 | inactive |
| CTSH (cathepsin H) | no change | no change | -0.51 | 1.8 | inactive |
| GMNN (geminin DNA replication inhibitor) | no change | no change | -0.81 | 2.54 | inactive |
| PGAM2 (phosphoglycerate mutase 2) | no change | no change | 0.74 | 0.74 | inactive |
| GALNT3 (polypeptide N-acetylgalactosaminyltransferase 3) | no change | no change | -1.59 | 3.24 | inactive |
| SLC38A8 | no change | no change | -0.46 | -0.68 | inactive |
| MCM8 | no change | no change | 1.25 | -0.6 | inactive |
| CSF2RA (colony stimulating factor 2 receptor subunit alpha) | no change | no change | -0.14 | -0.78 | inactive |
| SLC25A3 | no change | no change | 0.46 | 1.11 | inactive |
| SDK1 (sidekick cell adhesion molecule 1) | no change | no change | -0.01 | -0.68 | inactive |
| TAF7L (TATA-box binding protein associated factor 7 like) | no change | no change | 0.7 | 1.24 | inactive |
| UBE2A (ubiquitin conjugating enzyme E2 A) | no change | no change | 0.21 | -0.34 | inactive |
| CLEC12A (C-type lectin domain family 12 member A) | no change | no change | 0.03 | -1.3 | inactive |
| FMNL3 (formin like 3) | no change | no change | 0.83 | -0.81 | inactive |
| RS1 (retinoschisin 1) | no change | no change | -0.5 | -0.83 | inactive |
| POMT2 (protein O-mannosyltransferase 2) | no change | no change | -0.46 | 3.84 | inactive |
| ACVR1 (activin A receptor type 1) | no change | no change | 1.27 | -0.32 | inactive |
| PER3 (period circadian regulator 3) | no change | no change | 1.44 | 0.71 | inactive |
| PRR4 (proline rich 4) | no change | no change | 0.48 | 1.3 | inactive |
| OSBPL10 (oxysterol binding protein like 10) | no change | no change | -0.61 | 0.11 | inactive |
| C17orf78 (chromosome 17 open reading frame 78) | no change | no change | 0.44 | -0.34 | inactive |
| NEDD4L (NEDD4 like E3 ubiquitin protein ligase) | no change | no change | 0.54 | -0.86 | inactive |

8 entries from above, limited to “caspase hit class”.
GLTP (glycolipid transfer protein)	no change
INPP5F (inositol polyphosphate-5-phosphatase F)	no change
ACACB (acetyl-CoA carboxylase beta)	no change
VWCE (von Willebrand factor C and EGF domains)	no change
MGAT4C (MGAT4 family member C)	no change
NAP1L5 (nucleosome assembly protein 1 like 5)	no change
SUCLG1 (succinate-CoA ligase GDP/ADP-forming subunit alpha)	no change
ZFP30 (ZFP30 zinc finger protein)	no change
